The list does not hold the whole screen: it covers a few groups of compounds. Other doses and runs of a compound may be missing. T/C: endpoint of the treated group in % of that of the vehicle group. Some doses have a count of surviving animals in place of a T/C: the source holds a T/C of zero for them, seemingly a mark for toxic or unscored doses. Some doses without a T/C left all or most animals alive at the check, yet need not have been tolerated: survival well below the control is almost never listed, so the zero probably covers shortened survival too. Survivors were counted at the toxicity check, usually on the fifth day, unless a day is given; later deaths do not show. Schedules are NCI's codes, taken here to give the interval after Q, in days (D) or hours (H), and the number of doses after X. Brackets with × give the number of equal values in this list. Some doses were run more than once; their values stand side by side, smallest first. For survival time, the PubChem record calls one and a half times the control and up active, and a quarter to a half above the control has no call in these data; cut-offs in other NCI protocols can differ. Some T/C values are followed by the survivors on the day toxicity was checked, most often the fifth; where neither a count nor a note follows, no animal had died by that day.
System: AKR/Lw mice, AKR lymphoma ip, median survival T/C
Assay: NCI In Vivo Anticancer Drug Screen. Data for tumor model Lymphoma AKR (Transplanted) (intraperitoneal) in AKR/Lw mice
Details: T/C endpoint: median survival time, higher T/C = longer survival
Method: The antitumor activity of compounds was measured in mice bearing transplantable tumors. Survival or tumor size were measured and the results are expressed as the measurement made in the treated group (T) divided by the measurement made in the vehicle treated control group (C). The tumor model used in this assay is Lymphoma AKR (Transplanted) (intraperitoneal) in AKR/Lw mice

[1] = dose: 300.0 mg/kg/injection, schedule: Q01DX001 (ip), vehicle: Klucel (hydroxypropylcellulose) (HPC)
[2] = dose: 300.0 mg/kg/injection, schedule: Q04DX003 (ip), vehicle: Klucel (hydroxypropylcellulose) (HPC)
[3] = dose: 300.0 mg/kg/injection, schedule: Q04DX003 (ip), vehicle: saline
[4] = dose: 400.0 mg/kg/injection, schedule: Q04DX003 (ip), vehicle: Klucel (hydroxypropylcellulose) (HPC)
[5] = dose: 500.0 mg/kg/injection, schedule: Q01DX001 (ip), vehicle: Klucel (hydroxypropylcellulose) (HPC)
[6] = dose: 500.0 mg/kg/injection, schedule: Q01DX001 (ip), vehicle: saline

NC(=O)c1[nH]cnc1/N=N\N(CCCl)CCCl
T/C (dose: 130.0 mg/kg/injection, schedule: Q01DX001 (ip), vehicle: Klucel (hydroxypropylcellulose) (HPC), evaluated on day 60): 126 % of control | T/C (dose: 150.0 mg/kg/injection, schedule: Q04DX003 (ip), vehicle: Klucel (hydroxypropylcellulose) (HPC), evaluated on day 30): 107 % of control | T/C (dose: 150.0 mg/kg/injection, schedule: Q04DX003 (ip), vehicle: Klucel (hydroxypropylcellulose) (HPC), evaluated on day 60): 89, 109, 138 % of control | T/C (dose: 150.0 mg/kg/injection, schedule: Q04DX003 (ip), vehicle: saline): 88 % of control | T/C (dose: 160.0 mg/kg/injection, schedule: Q01DX001 (ip), vehicle: Klucel (hydroxypropylcellulose) (HPC), evaluated on day 5): 114 % of control | T/C (dose: 160.0 mg/kg/injection, schedule: Q01DX001 (ip), vehicle: Klucel (hydroxypropylcellulose) (HPC), evaluated on day 60): 114 % of control | survivor count (dose: 175.0 mg/kg/injection, schedule: Q04DX003 (ip), vehicle: Klucel (hydroxypropylcellulose) (HPC)): 10 of 10 | T/C (dose: 200.0 mg/kg/injection, schedule: Q01DX001 (ip), vehicle: Klucel (hydroxypropylcellulose) (HPC), evaluated on day 5): 117 % of control | T/C (dose: 200.0 mg/kg/injection, schedule: Q01DX001 (ip), vehicle: Klucel (hydroxypropylcellulose) (HPC), evaluated on day 60): 102, 104 [9 of 10 alive], 110, 114, 117, 141 % of control | T/C (dose: 200.0 mg/kg/injection, schedule: Q01DX001 (ip), vehicle: saline with Tween-80): 111 % of control | T/C (dose: 200.0 mg/kg/injection, schedule: Q01DX001 (ip), vehicle: saline, evaluated on day 45): 107 % of control | T/C (dose: 200.0 mg/kg/injection, schedule: Q01DX001 (ip), vehicle: saline, evaluated on day 60): 111, 125, 128, 138 % of control | T/C (dose: 200.0 mg/kg/injection, schedule: Q01DX009 (ip), vehicle: saline): 89 % of control [9 of 10 alive] | T/C (dose: 200.0 mg/kg/injection, schedule: Q04DX003 (ip), vehicle: Klucel (hydroxypropylcellulose) (HPC), evaluated on day 30): 92 % of control | T/C (dose: 200.0 mg/kg/injection, schedule: Q04DX003 (ip), vehicle: Klucel (hydroxypropylcellulose) (HPC), evaluated on day 60): 97 [9 of 10 alive] and 141 % of control | survivor count (dose: 200.0 mg/kg/injection, schedule: Q04DX003 (ip), vehicle: Klucel (hydroxypropylcellulose) (HPC)): 10 of 10 | T/C (dose: 200.0 mg/kg/injection, schedule: Q04DX003 (ip), vehicle: saline): 123 % of control | T/C (dose: 212.0 mg/kg/injection, schedule: Q01DX001 (ip), vehicle: Klucel (hydroxypropylcellulose) (HPC), evaluated on day 5): 106 % of control | T/C (dose: 212.0 mg/kg/injection, schedule: Q01DX001 (ip), vehicle: Klucel (hydroxypropylcellulose) (HPC), evaluated on day 60): 106 % of control [9 of 10 alive] | T/C (dose: 250.0 mg/kg/injection, schedule: Q04DX003 (ip), vehicle: Klucel (hydroxypropylcellulose) (HPC)): 91 % of control [9 of 10 alive] | T/C (dose: 250.0 mg/kg/injection, schedule: Q04DX003 (ip), vehicle: saline): 122, 140, 150, 168 % of control | survivor count (dose: 256.0 mg/kg/injection, schedule: Q01DX005 (ip), vehicle: water): 10 of 10 | T/C (dose: 270.0 mg/kg/injection, schedule: Q01DX001 (ip), vehicle: Klucel (hydroxypropylcellulose) (HPC), evaluated on day 5): 138 % of control | T/C (dose: 270.0 mg/kg/injection, schedule: Q01DX001 (ip), vehicle: Klucel (hydroxypropylcellulose) (HPC), evaluated on day 60): 138 % of control | T/C [1]: 105 [9 of 10 alive], 128, 128 % of control [9 of 10 alive] | survivor count [1]: 9 of 10 | T/C (dose: 300.0 mg/kg/injection, schedule: Q01DX001 (ip), vehicle: saline, evaluated on day 45): 89 % of control | T/C (dose: 300.0 mg/kg/injection, schedule: Q01DX001 (ip), vehicle: saline, evaluated on day 60): 122, 126, 142, 144 % of control | T/C [2]: 100 and 129 % of control | survivor count [2]: 8 of 10 | T/C [3]: 114 % of control | survivor count [3]: 8 of 10 | T/C (dose: 320.0 mg/kg/injection, schedule: Q01DX001 (ip), vehicle: Klucel (hydroxypropylcellulose) (HPC), evaluated on day 5): 177 % of control | T/C (dose: 320.0 mg/kg/injection, schedule: Q01DX001 (ip), vehicle: Klucel (hydroxypropylcellulose) (HPC), evaluated on day 60): 177 % of control | T/C (dose: 400.0 mg/kg/injection, schedule: Q01DX001 (ip), vehicle: Klucel (hydroxypropylcellulose) (HPC), evaluated on day 5): 146 % of control | T/C (dose: 400.0 mg/kg/injection, schedule: Q01DX001 (ip), vehicle: Klucel (hydroxypropylcellulose) (HPC), evaluated on day 60): 112, 115, 126 [9 of 10 alive], 146, 157 % of control [8 of 10 alive] | survivor count (dose: 400.0 mg/kg/injection, schedule: Q01DX001 (ip), vehicle: Klucel (hydroxypropylcellulose) (HPC)): 8 of 10 and 10 of 10 | T/C (dose: 400.0 mg/kg/injection, schedule: Q01DX001 (ip), vehicle: saline with Tween-80): 108 % of control | T/C (dose: 400.0 mg/kg/injection, schedule: Q01DX001 (ip), vehicle: saline): 88, 100, 122, 150 % of control | T/C (dose: 400.0 mg/kg/injection, schedule: Q01DX009 (ip), vehicle: Klucel (hydroxypropylcellulose) (HPC)): 117 % of control | T/C [4]: 88 % of control [9 of 10 alive] | survivor count [4]: 9 of 10 (2×) | T/C (dose: 400.0 mg/kg/injection, schedule: Q04DX003 (ip), vehicle: saline): 114 % of control | T/C [5]: 115 [9 of 10 alive] and 117 % of control | survivor count [5]: 7 of 10 and 10 of 10 | T/C [6]: 111 % of control | survivor count [6]: 10 of 10 | T/C (dose: 500.0 mg/kg/injection, schedule: Q04DX003 (ip), vehicle: Klucel (hydroxypropylcellulose) (HPC)): 100 % of control | survivor count (dose: 512.0 mg/kg/injection, schedule: Q01DX005 (ip), vehicle: water): 2 of 10 | survivor count (dose: 600.0 mg/kg/injection, schedule: Q01DX001 (ip), vehicle: Klucel (hydroxypropylcellulose) (HPC)): 8 of 10 and 9 of 10 | T/C (dose: 600.0 mg/kg/injection, schedule: Q01DX001 (ip), vehicle: saline): 119 and 144 % of control | survivor count (dose: 800.0 mg/kg/injection, schedule: Q01DX001 (ip), vehicle: Klucel (hydroxypropylcellulose) (HPC)): 9 of 10

Source: PubChem BioAssay AID190 (DTP/NCI, 2004)
